{"source": "patent US20170348306A1", "about": "“METHODS OF TREATING CANCER” (GLAXOSMITHKLINE LLC, priority 2011, published 2017)", "assay": "Mouse pharmacokinetic study, blood and tumor", "format": "in vivo", "conditions": "50 mg/kg intraperitoneal; female beige SCID mice bearing Pfeiffer xenografts", "note": "At least one read-out could not be matched to a standard name with certainty."}
{"smiles": "CC[C@H](C)n1cc(C)c2c(C(=O)NCc3c(C)cc(C)[nH]c3=O)cc(-c3ccc(N4CCNCC4)nc3)cc21", "note": "[GSK126]", "values": [{"measurement": "clearance from blood and tumor", "value": "initially cleared rapidly from the blood, there was an extended terminal phase where drug elimination from blood and tumor was slower"}]}
